Assay results: PubChem BioAssay AID1347423 (Functional Genomics Laboratory (NCATS/FGL), 2020)
Among all 52,000 sequences or so, about 210 (0.4%) were called active.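 The calls were made as follows: active = gene whose silencing raises cell survival under the drug, median off-target-corrected z-score across its silencing RNAs 2 or more; inactive = the rest.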 Some of the results follow.

test: Resistance to Poly (ADP-Ribose) Polymerase inhibitor: Gene Identification via Genome-wide siRNA Screen; conditions: mouse BRCA2 R2336H ES cells, olaparib, CellTiter-Glo viability; active compounds read high
How it was run: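 Mouse BRCA2 R2336H ES cells were reverse-transfected with siRNA (20 nM final), treated at 48 h with 500 nM olaparib, and read by CellTiter-Glo after 72 h. Scores: MAD-based z per siRNA, median per gene, seed off-target correction.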

Sequence | z-score
CGGGUUUAGGAGCAACCUUTT against Zdhhc4 | inactive: -2.42
GCUUGAUAGGGAACUUAAUTT against Olfr805 | inactive: -0.829
GCUGAAGAGGCGCAUACAUTT against 2610318N02Rik | inactive: -0.856
GGUGAUGUGGAAAAAUGCATT against Sult1e1 | inactive: 1.1
GCUUAGUGAGGAGAUACAATT against D8Ertd457e | inactive: -1.15
GGGAGAAACGCAUCUUAUCTT against Ngly1 | inactive: 0.252
GGAAUGCAUCGAGUGAAAATT against 2810432L12Rik | inactive: -0.984
GCUACAGCGGAAACUUCCUTT against D11Wsu68e | inactive: -0.0239
GGAGAGAGUCAGAAAGAAGTT against D1Ertd578e | inactive: -0.26
GGAGAUGUUCCACAAGAAGTT against Cacna2d3 | inactive: 0.121
GGGAAGUGCAUGCUCAUCUTT against Smarcal1 | inactive: -2.41
GCUGUCCAAGUACGAGACATT against Atoh7 | inactive: -1.02
GCCAGUUCAUACAAGAGGGTT against 1300003B13Rik | inactive: -1.36
GGGACUUGUCCAAUAAAGUTT against Jtv1 | inactive: 0.677
GGAAGAACUUGUCUCUUUUTT against D330034A10Rik | inactive: -0.725
GCAAUUAUCGUGGUAUCCUTT against Dgat1 | inactive: 1.31
GGCAACUGUGUUCUCACGATT against Ddx58 | inactive: 2.44
GGUAUUCACUGUAUUUAACTT against Tm4sf3 | inactive: 0.946
GGCCUGCUUCAAACAGUUUTT against Slc1a6 | inactive: 0.731
UGCUGUGCAGAAAGACUAGTT against Nkx2-6 | inactive: -1.38
CCCUAACAGAUCUCAUUGATT against D030001E08 | inactive: -1.66
GCAAGUAAGCCUAAGGAAATT against Pcnp | inactive: 0.351

Sequence | z-score
CCCAUUACAAUGUCACCAGTT against 1810033M07Rik | inactive: -0.516
GCAUUAAUGUGACAGCUACTT against Dhrs4 | inactive: 1.92
GGUACUUUUCUCACUUCUATT against Srd5a2l | inactive: 0.709
GCCUCUGAUGUAAACAGGATT against 2310073E15Rik | inactive: 1.06
GGUGAGGUAGGUGAUGAGCTT against S100a17 | inactive: 0.0699
CCUCAUAAAUUCACUCUCCTT against Psp | inactive: 0.0309
GGGAUGUCUUCCUAUACAGTT against Cope | inactive: 0.109
CGAGUUUAAAGUGAGAAGATT against Pit1 | inactive: 0.97
GGAGUCAGUGACAAGGCUCTT against Olfr54 | inactive: 1.34
CGAGGGAAUGCACUACAACTT against D1Bwg1363e | inactive: -1.89
GGACGAAGAGGAGAAAGAGTT against AI836003 | inactive: -0.825
GCACUGGAAUGUCAUCUCGTT against Casp3 | inactive: 0.587
GGUAUUCCUUGCCAUUCGGTT against Stc1 | inactive: -0.181
GCGAGGGAUAGAAGUCGUGTT against Itpk1 | inactive: -0.325
GGAAUUUAAGGUGUUCACATT against Lcn3 | inactive: 0.553
GGUCGAAGUGAAACCAGUCTT against Pik3r2 | inactive: 0.384
GCAUGUUUCCCUACUAUGATT against Pet2 | inactive: 1.25
CCUGACGAAAAUGUUUUAATT against C820005L12Rik | inactive: 0.24
GGGCUCCACUACCUAAUCATT against Gpr83 | inactive: 1.91
GCUGAAACCUCAUGAGGAGTT against Ptpn9 | active: 3.06
GGAAAAGGAAAUAAAAGAGTT against Hemgn | inactive: -0.654
GCGAGAAUUCUCUUCCAAUTT against Gsh2 | inactive: 0.938

Sequence | z-score
CGCAAUGUAUGAUUCAAUGTT against Mogat1 | inactive: 0.0906
CCUAUUCCAUUGACAAUGATT against Tubb2 | inactive: 0.0982
GGUCAUCUUUCCAGUCAGCTT against Mak3 | inactive: -1.99
GGAUGAACCACCAUAUGUGTT against Olfr1188 | inactive: -0.532
GGAGAACUGUCAUAUGCUUTT against Cntn3 | inactive: 0.215
GCCUUGUACUGUGUAUAUATT against Gse1 | inactive: -0.159
GGACUGUUACAAAUGAAGUTT against Cxcl1 | inactive: 0.714
CCUAGUAGCCGAGAAACAUTT against Olfr1137 | inactive: -0.259
GGCAGGACACCAUAUGGUUTT against 4930427A07Rik | inactive: -1.03
GGCUAUAGUUCUCUGUUUUTT against 2610528O22Rik | inactive: 0.257
GGAAAAGAAGAAGUCAGAATT against Clmn | inactive: 0.28
GGCUUCCUUUUUGAAGCUATT against AB041549 | inactive: 0.779
GCUAUAGGCAAUGUGAUCUTT against Gm316 | inactive: -0.342
CCCAGCAAAUUCAUUCUACTT against Spon2 | inactive: 0.967
GGACUUGAACCCAGUUUGCTT against C230030N03Rik | inactive: 0.792
GGCACACAGUAACUUGAACTT against V1ra1 | inactive: 1.09
GGCUUCAAUAGUUCUCCUATT against Rpl10 | inactive: -2.36
GGCCUCUCAAAAUCUUCCUTT against Galnt11 | inactive: -0.659
AUUCAUUGGGAAAAAUUAUTT against Olfr127 | inactive: 0.609
GGAACAUUCUGAGAAGAAATT against Cwf19l2 | inactive: -0.0286
GAGUUGGCUCGAAACUGCCTT against Fbxl15 | inactive: 0.448
GGAAGUCACAGGGAUGUUGTT against Drbp1 | inactive: -1.56

Quoted at random: 2 records from the list
Sequence | z-score
GGCAGGACACCAUAUGGUUTT against 4930427A07Rik | inactive: -1.03
GGGCUCCACUACCUAAUCATT against Gpr83 | inactive: 1.91
